# Results: the M2OR odorant receptor database
# The list shows a part of the results, in another mix than the full data. Calls are pooled over several reports, among them a noisy single-well screen.
# Assays:
# Conditions in all cases: stereoisomer not certain
# [1] = molecular target: T1, OR10A5 (Homo sapiens) (UniProt Q9H207)
# T1 sequence (whole entry): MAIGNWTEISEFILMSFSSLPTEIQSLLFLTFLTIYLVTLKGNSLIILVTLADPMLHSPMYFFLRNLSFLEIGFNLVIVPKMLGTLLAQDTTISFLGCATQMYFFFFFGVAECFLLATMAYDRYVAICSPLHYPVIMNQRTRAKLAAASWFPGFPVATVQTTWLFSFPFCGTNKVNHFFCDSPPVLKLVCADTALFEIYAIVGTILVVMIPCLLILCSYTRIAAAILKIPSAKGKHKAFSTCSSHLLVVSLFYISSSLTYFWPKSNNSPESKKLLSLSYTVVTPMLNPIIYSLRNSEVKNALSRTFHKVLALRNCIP
# In short: (§1)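 Transient luciferase assays in mammalian cell lines were common, though methods varied by source. The values come from published papers and their supplementary material, with extra details from the original authors when needed. Responsive refers to a measured signal the original authors judged statistically different from baseline, and non-responsive (inactive) to the remainder.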
# [2] = molecular target: T2, OR10A6 (Homo sapiens) (UniProt Q8NH74)
# T2 sequence (whole entry): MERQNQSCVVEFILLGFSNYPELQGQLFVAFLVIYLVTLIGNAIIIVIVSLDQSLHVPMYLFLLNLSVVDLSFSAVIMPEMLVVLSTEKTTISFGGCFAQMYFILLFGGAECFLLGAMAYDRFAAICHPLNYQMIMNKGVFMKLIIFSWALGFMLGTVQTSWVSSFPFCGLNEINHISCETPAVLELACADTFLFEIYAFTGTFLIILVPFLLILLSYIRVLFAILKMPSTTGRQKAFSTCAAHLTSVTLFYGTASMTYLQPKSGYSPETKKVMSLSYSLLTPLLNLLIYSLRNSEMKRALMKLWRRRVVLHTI
# In short: as §1
# [3] = molecular target: T3, OR10A7 (Homo sapiens) (UniProt Q8NGE5)
# T3 sequence (whole entry): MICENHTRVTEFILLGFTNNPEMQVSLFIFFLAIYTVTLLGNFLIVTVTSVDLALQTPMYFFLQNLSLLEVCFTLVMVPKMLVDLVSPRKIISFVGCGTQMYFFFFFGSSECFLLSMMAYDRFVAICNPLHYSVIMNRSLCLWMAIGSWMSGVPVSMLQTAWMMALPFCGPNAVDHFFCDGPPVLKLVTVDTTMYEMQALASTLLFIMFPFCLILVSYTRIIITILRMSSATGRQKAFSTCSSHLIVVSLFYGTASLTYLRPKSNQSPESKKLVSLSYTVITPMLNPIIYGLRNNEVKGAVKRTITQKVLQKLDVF
# In short: as §1
# [4] = molecular target: T4, OR10AG1 (Homo sapiens) (UniProt Q8NH19)
# T4 sequence (whole entry): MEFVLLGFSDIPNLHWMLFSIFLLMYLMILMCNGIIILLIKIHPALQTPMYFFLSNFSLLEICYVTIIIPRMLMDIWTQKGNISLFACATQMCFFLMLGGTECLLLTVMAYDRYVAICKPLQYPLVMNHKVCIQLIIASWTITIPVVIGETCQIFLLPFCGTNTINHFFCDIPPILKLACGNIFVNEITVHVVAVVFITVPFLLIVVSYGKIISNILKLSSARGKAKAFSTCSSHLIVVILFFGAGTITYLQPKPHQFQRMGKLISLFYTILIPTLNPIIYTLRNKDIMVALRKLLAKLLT
# In short: as §1
# [5] = molecular target: T5, OR10C1 (Homo sapiens) (UniProt Q96KK4)
# T5 sequence (whole entry): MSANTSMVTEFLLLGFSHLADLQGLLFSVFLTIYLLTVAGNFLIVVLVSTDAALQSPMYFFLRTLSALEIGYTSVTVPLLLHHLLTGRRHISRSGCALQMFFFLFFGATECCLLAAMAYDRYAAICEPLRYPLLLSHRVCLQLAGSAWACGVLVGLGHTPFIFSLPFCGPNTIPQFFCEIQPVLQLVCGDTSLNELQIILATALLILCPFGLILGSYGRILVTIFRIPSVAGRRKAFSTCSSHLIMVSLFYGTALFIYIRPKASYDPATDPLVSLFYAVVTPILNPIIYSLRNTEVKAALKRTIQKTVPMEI
# In short: as §1
# [6] = molecular target: T6, OR10G6 (Homo sapiens) (UniProt Q8NH81)
# T6 sequence (whole entry): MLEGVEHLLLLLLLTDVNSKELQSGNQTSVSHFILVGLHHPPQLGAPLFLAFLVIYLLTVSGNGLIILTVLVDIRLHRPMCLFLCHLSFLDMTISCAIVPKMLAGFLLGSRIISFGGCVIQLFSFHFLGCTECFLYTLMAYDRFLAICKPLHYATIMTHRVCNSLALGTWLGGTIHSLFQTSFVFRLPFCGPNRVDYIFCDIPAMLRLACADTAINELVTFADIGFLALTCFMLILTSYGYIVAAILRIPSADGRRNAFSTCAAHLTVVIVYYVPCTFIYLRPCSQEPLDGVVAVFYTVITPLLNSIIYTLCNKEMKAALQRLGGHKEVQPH
# In short: as §1
# [7] = molecular target: T7, OR10G7 (Homo sapiens) (UniProt Q8NGN6)
# T7 sequence (whole entry): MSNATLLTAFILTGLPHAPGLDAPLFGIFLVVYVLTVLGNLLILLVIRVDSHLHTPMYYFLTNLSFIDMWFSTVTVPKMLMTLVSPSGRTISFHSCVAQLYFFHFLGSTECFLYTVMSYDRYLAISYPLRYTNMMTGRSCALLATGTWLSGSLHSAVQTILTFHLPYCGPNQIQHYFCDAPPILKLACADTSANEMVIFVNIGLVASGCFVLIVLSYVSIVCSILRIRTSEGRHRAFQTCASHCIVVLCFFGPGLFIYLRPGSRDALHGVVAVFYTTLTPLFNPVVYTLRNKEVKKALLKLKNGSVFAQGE
# In short: as §1
# [8] = molecular target: T8, OR10G8 (Homo sapiens) (UniProt Q8NGN5)
# T8 sequence (whole entry): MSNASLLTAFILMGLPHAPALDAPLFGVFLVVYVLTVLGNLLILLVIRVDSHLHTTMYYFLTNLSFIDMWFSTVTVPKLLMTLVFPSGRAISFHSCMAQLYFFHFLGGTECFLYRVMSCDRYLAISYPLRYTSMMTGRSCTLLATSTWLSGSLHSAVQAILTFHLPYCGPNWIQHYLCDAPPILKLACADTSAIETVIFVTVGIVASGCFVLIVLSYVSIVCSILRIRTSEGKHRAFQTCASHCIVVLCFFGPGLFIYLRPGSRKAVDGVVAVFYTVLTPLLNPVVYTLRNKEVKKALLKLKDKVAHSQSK
# In short: as §1
# [9] = molecular target: T9, OR10H1 (Homo sapiens) (UniProt Q9Y4A9)
# T9 sequence (whole entry): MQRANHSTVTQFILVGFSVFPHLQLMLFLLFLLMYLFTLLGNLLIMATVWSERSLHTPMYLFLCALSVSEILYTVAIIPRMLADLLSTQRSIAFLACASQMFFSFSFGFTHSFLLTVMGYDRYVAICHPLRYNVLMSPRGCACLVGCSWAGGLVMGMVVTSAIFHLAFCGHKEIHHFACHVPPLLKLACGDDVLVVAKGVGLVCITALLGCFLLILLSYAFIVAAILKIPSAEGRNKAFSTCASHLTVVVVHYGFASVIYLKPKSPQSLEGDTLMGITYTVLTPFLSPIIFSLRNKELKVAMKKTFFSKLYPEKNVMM
# In short: as §1
# [10] = molecular target: T10, OR10H3 (Homo sapiens) (UniProt O60404)
# T10 sequence (whole entry): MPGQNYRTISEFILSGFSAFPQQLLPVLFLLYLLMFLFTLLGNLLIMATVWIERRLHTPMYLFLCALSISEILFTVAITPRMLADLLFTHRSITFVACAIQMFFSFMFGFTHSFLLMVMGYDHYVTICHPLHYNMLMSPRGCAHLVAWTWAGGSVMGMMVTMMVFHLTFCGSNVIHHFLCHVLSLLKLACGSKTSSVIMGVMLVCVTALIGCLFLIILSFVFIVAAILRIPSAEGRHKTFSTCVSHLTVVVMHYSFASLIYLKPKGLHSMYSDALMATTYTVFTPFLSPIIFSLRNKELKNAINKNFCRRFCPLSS
# In short: as §1
# [11] = molecular target: T11, OR10H4 (Homo sapiens) (UniProt Q8NGA5)
# T11 sequence (whole entry): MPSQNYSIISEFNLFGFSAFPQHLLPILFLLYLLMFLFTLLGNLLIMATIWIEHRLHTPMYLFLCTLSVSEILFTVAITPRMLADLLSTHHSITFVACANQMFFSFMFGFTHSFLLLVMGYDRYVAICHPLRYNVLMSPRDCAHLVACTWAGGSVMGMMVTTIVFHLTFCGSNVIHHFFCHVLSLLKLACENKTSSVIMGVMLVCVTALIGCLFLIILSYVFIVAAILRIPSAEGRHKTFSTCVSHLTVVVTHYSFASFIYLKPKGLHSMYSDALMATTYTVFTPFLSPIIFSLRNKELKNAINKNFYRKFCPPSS
# In short: as §1
# [12] = molecular target: T12, OR10J5 (Homo sapiens) (UniProt Q8NHC4)
# T12 sequence (whole entry): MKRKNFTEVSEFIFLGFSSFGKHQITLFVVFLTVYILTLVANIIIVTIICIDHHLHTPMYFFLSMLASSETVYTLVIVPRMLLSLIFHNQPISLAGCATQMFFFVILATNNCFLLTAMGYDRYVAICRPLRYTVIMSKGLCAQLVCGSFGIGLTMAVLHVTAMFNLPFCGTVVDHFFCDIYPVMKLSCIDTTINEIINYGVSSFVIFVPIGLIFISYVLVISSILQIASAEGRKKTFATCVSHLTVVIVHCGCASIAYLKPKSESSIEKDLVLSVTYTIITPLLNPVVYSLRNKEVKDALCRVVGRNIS
# In short: as §1
# 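Note: active if original authors judged signal statistically different from baseline.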
SMILES,odorant receptor agonist call [1],odorant receptor agonist call [2],odorant receptor agonist call [3],odorant receptor agonist call [4],odorant receptor agonist call [5],odorant receptor agonist call [6],odorant receptor agonist call [7],odorant receptor agonist call [8],odorant receptor agonist call [9],odorant receptor agonist call [10],odorant receptor agonist call [11],odorant receptor agonist call [12]
CCCCCCOC(=O)CCC,inactive,inactive,inactive,inactive,inactive,inactive,inactive,inactive,inactive,inactive,inactive,inactive
c1ccc(Oc2ccccc2)cc1,inactive,inactive,inactive,inactive,inactive,inactive,inactive,inactive,inactive,inactive,inactive,inactive
CC(=O)OC(C)(C)C1CC=C(C)CC1 (stereo unspecified),active,inactive,inactive,inactive,inactive,inactive,inactive,inactive,inactive,inactive,inactive,inactive
CC(C)CC(=O)O,inactive,inactive,inactive,inactive,inactive,inactive,active,inactive,inactive,inactive,inactive,inactive
CCCCCCCCC=O,,,,,,,,active,,,,inactive
COc1cc(C)ccc1O,inactive,inactive,inactive,inactive,inactive,inactive,active,inactive,inactive,inactive,inactive,inactive
CCC1(O)C2(C)CCC(C2)C1(C)C (stereo unspecified),inactive,inactive,inactive,inactive,inactive,inactive,active,inactive,inactive,inactive,inactive,inactive
CC12CCC(CC1)C(C)(C)O2,inactive,inactive,inactive,inactive,inactive,inactive,active,inactive,inactive,inactive,inactive,inactive
C=CCc1ccc(OC)c(OC)c1,inactive,inactive,inactive,inactive,inactive,inactive,active,inactive,inactive,inactive,inactive,inactive
CC1=NC(C)SC1C (stereo unspecified),,inactive,inactive,active,inactive,active,,inactive,inactive,inactive,inactive,inactive
CC(C)(O)CCCC1=CCC(C=O)CC1 (stereo unspecified),active,,,,,,inactive,,,,,active
CCCCO,inactive,inactive,inactive,inactive,inactive,inactive,inactive,inactive,inactive,inactive,inactive,inactive
C=C(C)C1CCC2=CC(=O)CC(C)C2(C)C1 (stereo unspecified),active,inactive,,,inactive,,inactive,,,,,
CC1COCc2cc3c(cc21)C(C)(C)C(C)C3(C)C (stereo unspecified),inactive,active,active,active,active,active,active,active,active,active,active,active
C=CC(C)(O)CCC=C(C)C (stereo unspecified),inactive,inactive,inactive,inactive,inactive,inactive,active,inactive,inactive,inactive,inactive,inactive
C=C(C)C1CC=C(C)C(=O)C1 (stereo unspecified),,,,,,,,,,,,inactive
CC1=CCC(C(C)(C)O)CC1 (stereo unspecified),active,inactive,inactive,inactive,inactive,inactive,inactive,inactive,inactive,inactive,inactive,inactive
COc1ccccc1O,inactive,inactive,inactive,inactive,active,inactive,active,inactive,inactive,inactive,inactive,inactive
CCCCCCCC=CC=O,inactive,inactive,inactive,inactive,inactive,inactive,active,inactive,inactive,inactive,inactive,active
O=C1CCCCC1,,inactive,inactive,inactive,inactive,active,,inactive,inactive,inactive,inactive,inactive
COC(=O)c1ccccc1,,inactive,inactive,inactive,inactive,inactive,,inactive,inactive,inactive,inactive,inactive
CCCCCC(=O)O,inactive,inactive,inactive,inactive,inactive,inactive,inactive,inactive,inactive,inactive,inactive,inactive
CC1CCC(C(C)C)C(O)C1 (stereo unspecified),inactive,inactive,inactive,inactive,inactive,inactive,inactive,inactive,inactive,active,inactive,inactive
CCCCCC(C)=O,,inactive,inactive,active,inactive,inactive,,inactive,inactive,inactive,active,inactive
CC(=O)c1ccccc1,,inactive,inactive,inactive,inactive,inactive,,inactive,inactive,inactive,inactive,inactive
CCCCCCC=O,,,,,,,,,,,,inactive
CCCCCCCC=O,inactive,inactive,inactive,inactive,inactive,inactive,active,inactive,inactive,inactive,inactive,inactive
CCCC(=O)O,inactive,inactive,inactive,inactive,inactive,inactive,inactive,inactive,inactive,inactive,inactive,inactive
CC(=O)OC1CC2CCC1(C)C2(C)C (stereo unspecified),inactive,inactive,inactive,inactive,inactive,inactive,active,inactive,inactive,inactive,inactive,inactive
O=CCc1ccccc1,active,inactive,inactive,inactive,inactive,inactive,active,inactive,inactive,inactive,inactive,inactive

# An excerpt from above in order of length of the SMILES, ascending.
SMILES,odorant receptor agonist call [1],odorant receptor agonist call [2],odorant receptor agonist call [3],odorant receptor agonist call [4],odorant receptor agonist call [5],odorant receptor agonist call [6],odorant receptor agonist call [7],odorant receptor agonist call [8],odorant receptor agonist call [9],odorant receptor agonist call [10],odorant receptor agonist call [11],odorant receptor agonist call [12]
CCCCCCCC=O,inactive,inactive,inactive,inactive,inactive,inactive,active,inactive,inactive,inactive,inactive,inactive
CC(C)CC(=O)O,inactive,inactive,inactive,inactive,inactive,inactive,active,inactive,inactive,inactive,inactive,inactive
CCC1(O)C2(C)CCC(C2)C1(C)C (stereo unspecified),inactive,inactive,inactive,inactive,inactive,inactive,active,inactive,inactive,inactive,inactive,inactive
